According to article PMC7316882:
No constants are given. Whether binding was seen depends on the method and setting. In cells and extracts the contact can be indirect. Some entries that bind do so weakly or less than the wild type. Tags and fused reporters may be left off the sequences shown.

T1: dUSP36-D-V5 (wild-type dUSP36-D isoform, V5-tagged) (Drosophila melanogaster) (UniProt Q9VRP5)
T1 sequence: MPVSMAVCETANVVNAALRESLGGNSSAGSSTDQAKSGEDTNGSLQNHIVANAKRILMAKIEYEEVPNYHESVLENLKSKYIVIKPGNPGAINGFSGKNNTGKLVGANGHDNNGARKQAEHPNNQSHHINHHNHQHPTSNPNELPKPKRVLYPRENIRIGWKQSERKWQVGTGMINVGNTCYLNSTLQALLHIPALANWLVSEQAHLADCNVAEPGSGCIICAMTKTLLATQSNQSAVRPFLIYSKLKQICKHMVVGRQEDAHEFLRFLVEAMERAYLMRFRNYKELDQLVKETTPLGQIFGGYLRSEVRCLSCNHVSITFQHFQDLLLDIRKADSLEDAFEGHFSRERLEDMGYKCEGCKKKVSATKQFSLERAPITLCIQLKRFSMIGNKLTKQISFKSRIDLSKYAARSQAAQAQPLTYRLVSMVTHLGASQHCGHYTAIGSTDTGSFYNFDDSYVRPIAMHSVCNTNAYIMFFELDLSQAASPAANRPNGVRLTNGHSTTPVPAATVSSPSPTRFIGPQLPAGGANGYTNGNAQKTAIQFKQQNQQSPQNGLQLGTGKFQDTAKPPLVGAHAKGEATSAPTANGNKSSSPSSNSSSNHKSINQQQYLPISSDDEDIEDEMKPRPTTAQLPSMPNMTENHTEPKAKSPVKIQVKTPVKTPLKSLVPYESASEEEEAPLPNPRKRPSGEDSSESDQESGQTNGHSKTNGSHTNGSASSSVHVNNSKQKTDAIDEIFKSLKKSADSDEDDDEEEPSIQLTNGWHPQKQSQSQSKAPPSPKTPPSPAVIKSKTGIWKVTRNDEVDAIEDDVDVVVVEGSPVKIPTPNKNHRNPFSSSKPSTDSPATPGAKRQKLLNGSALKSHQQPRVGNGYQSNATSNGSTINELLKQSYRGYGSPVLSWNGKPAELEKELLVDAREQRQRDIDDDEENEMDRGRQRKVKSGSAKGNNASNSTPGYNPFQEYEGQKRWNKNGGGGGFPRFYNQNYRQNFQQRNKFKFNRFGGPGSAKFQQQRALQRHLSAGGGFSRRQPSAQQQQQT

T2: dMYC-Flag (Drosophila melanogaster) (UniProt Q9W4S7)
T2 sequence: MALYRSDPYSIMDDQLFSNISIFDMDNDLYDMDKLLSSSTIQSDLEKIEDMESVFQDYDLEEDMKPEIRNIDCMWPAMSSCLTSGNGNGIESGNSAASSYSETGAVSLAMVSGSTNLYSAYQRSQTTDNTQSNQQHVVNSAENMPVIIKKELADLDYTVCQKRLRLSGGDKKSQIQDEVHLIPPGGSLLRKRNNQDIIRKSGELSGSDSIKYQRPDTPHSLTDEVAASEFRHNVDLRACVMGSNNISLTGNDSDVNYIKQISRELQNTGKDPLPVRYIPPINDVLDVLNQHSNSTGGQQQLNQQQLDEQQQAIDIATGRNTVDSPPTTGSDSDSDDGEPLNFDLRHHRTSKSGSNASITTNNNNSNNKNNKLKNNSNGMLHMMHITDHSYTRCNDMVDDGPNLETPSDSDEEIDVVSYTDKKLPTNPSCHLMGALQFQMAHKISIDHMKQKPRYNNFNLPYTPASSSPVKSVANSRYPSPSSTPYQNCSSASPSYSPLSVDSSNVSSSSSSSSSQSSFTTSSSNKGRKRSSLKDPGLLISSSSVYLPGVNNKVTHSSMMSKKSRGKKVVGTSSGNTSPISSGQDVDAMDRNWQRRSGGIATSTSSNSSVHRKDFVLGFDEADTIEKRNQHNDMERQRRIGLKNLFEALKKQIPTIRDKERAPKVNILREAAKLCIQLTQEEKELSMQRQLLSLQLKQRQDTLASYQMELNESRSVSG


How the values were obtained:
[1] = molecular target: T1, dUSP36-D-V5 (wild-type dUSP36-D isoform, V5-tagged) (Drosophila melanogaster); test: co-IP; Drosophila S2 cells transfected with the tagged proteins for 48 h; lysis and immunoprecipitation in RIPA buffer (50 mM Tris-HCl, 150 mM NaCl, 1 mM EDTA, 1% IGEPAL, 0.5% sodium deoxycholate) with protease inhibitors and PR-619; lysates precleared; antibody (anti-V5 or anti-dMYC) with protein A or G-Sepharose overnight at 4°C; 4 washes; Western blot
[2] = molecular target: T2, dMYC-Flag (Drosophila melanogaster); test: as above

| Binder | binding [1] | binding [2] |
| --- | --- | --- |
| dMYC-Flag (protein, UniProt Q9W4S7 1-717) MALYRSDPYSIMDDQLFSNISIFDMDNDLYDMDKLLSSSTIQSDLEKIEDMESVFQDYDLEEDMKPEIRNIDCMWPAMSSCLTSGNGNGIESGNSAASSYSETGAVSLAMVSGSTNLYSAYQRSQTTDNTQSNQQHVVNSAENMPVIIKKELADLDYTVCQKRLRLSGGDKKSQIQDEVHLIPPGGSLLRKRNNQDIIRKSGELSGSDSIKYQRPDTPHSLTDEVAASEFRHNVDLRACVMGSNNISLTGNDSDVNYIKQISRELQNTGKDPLPVRYIPPINDVLDVLNQHSNSTGGQQQLNQQQLDEQQQAIDIATGRNTVDSPPTTGSDSDSDDGEPLNFDLRHHRTSKSGSNASITTNNNNSNNKNNKLKNNSNGMLHMMHITDHSYTRCNDMVDDGPNLETPSDSDEEIDVVSYTDKKLPTNPSCHLMGALQFQMAHKISIDHMKQKPRYNNFNLPYTPASSSPVKSVANSRYPSPSSTPYQNCSSASPSYSPLSVDSSNVSSSSSSSSSQSSFTTSSSNKGRKRSSLKDPGLLISSSSVYLPGVNNKVTHSSMMSKKSRGKKVVGTSSGNTSPISSGQDVDAMDRNWQRRSGGIATSTSSNSSVHRKDFVLGFDEADTIEKRNQHNDMERQRRIGLKNLFEALKKQIPTIRDKERAPKVNILREAAKLCIQLTQEEKELSMQRQLLSLQLKQRQDTLASYQMELNESRSVSG | binds |  |
| AGO-HA (protein, UniProt Q9VZF4 1-1326) MERGCPAASSESVTSAGERTQSAVTSSTSTWVKSQASTSRKTEASEESGLGAVDAEVGAGREAFVSMSTLREDVEDVCVSSNSQHGFAVVLDDESSTFEISSSNSLPTSAGAASTVGVVAVDDSSSTDTLNGGHPDLGHPASSEHSRQGFFNEDNEDPPVVCLINDDDDDEEPEPEEDDEEELIEDEDEDAVDIVTGAISCPNTSQLALADGTIMAADGSKIFLETPVVEEAQPHPGQVVTTGSQSELTGKPKRLSDEFLLGEEDQAENLALGRCIKSEPVNPVDDNPSEGDDGATCFSLHDRLMSVRLKQMSLTANTVSNPSPAASANAAAPEEASTSNSSSTSSSALSRADIESMDLIERRDFETEQRLTGGIILRTSSMVSQNKLNLSLIKSMAGGSKAANGSGTANSDDWPSSSNGRTVSSDSKYTYKDLSTTPTSSRKYTNSRLSKSTAKLNLGSSLGASSCSQHRSGSSSTSKSMESSTSCTGAARTDVYTNTNSNDYPSLAPTTSGSSTSGGSCQQDQEENVSASVSYSSVGSQTSQESGCSRTTAINPTAACSTGSACLGDSQASTSASTSSGAGASNRCQYATTSTTKAARQVNASAQTQERFLTRSNPPAASGAGSVGANPTASVRQRRNGSSDVVHLEVVVEEGAGGGDGGVVEPGDFSAEEPWANCDEENNCSDLEEICTCQNGNGSSYGGSNASLSETFDMDAMDPDEPISLSLSSASAGFTEYSLTNPSSLMSHQRKRKFNEGRLLDGGDYSVTISSSGEVGGPGSGVSDNCRKRIAYDFASTPRSSQHLGPTAVLSVTPSSHLTSSTPGSALGRRTPRSVPSRDNPPPELQHWLAQFQRWSHVERLLALDRLIDHCDPSQVRHMMKVIEPQFQRDFISLLPRELALFVLSYLEPKDLLRAAQTCRSWRFLCDDNLLWKEKCRKAQILAEPRSDRPKRGRDGNMPPIASPWKAAYMRQHIIEMNWRSRPVRKPKVLKGHDDHVITCLQFSGNRIVSGSDDNTLKVWSAVNGKCLRTLVGHTGGVWSSQMSGNIIISGSTDRTLKVWDMDSGACVHTLQGHTSTVRCMHLHGSKVVSGSRDATLRVWDIEQGSCLHVLVGHLAAVRCVQYDGKLIVSGAYDYMVKIWHPERQECLHTLQGHTNRVYSLQFDGLHVVSGSLDTSIRVWDVETGNCKHTLMGHQSLTSGMELRQNILVSGNADSTVKVWDITTGQCLQTLSGPNKHHSAVTCLQFNSRFVVTSSDDGTVKLWDVKTGDFIRNLVALDSGGSGGVVWRIRANDTKLICAVGSRNGTEETKLMVLDFDVEGACVKCS | binds | binds |
| dUSP36-D-V5 (wild-type dUSP36-D isoform, V5-tagged) (enzyme, UniProt Q9VRP5 1-1038) MPVSMAVCETANVVNAALRESLGGNSSAGSSTDQAKSGEDTNGSLQNHIVANAKRILMAKIEYEEVPNYHESVLENLKSKYIVIKPGNPGAINGFSGKNNTGKLVGANGHDNNGARKQAEHPNNQSHHINHHNHQHPTSNPNELPKPKRVLYPRENIRIGWKQSERKWQVGTGMINVGNTCYLNSTLQALLHIPALANWLVSEQAHLADCNVAEPGSGCIICAMTKTLLATQSNQSAVRPFLIYSKLKQICKHMVVGRQEDAHEFLRFLVEAMERAYLMRFRNYKELDQLVKETTPLGQIFGGYLRSEVRCLSCNHVSITFQHFQDLLLDIRKADSLEDAFEGHFSRERLEDMGYKCEGCKKKVSATKQFSLERAPITLCIQLKRFSMIGNKLTKQISFKSRIDLSKYAARSQAAQAQPLTYRLVSMVTHLGASQHCGHYTAIGSTDTGSFYNFDDSYVRPIAMHSVCNTNAYIMFFELDLSQAASPAANRPNGVRLTNGHSTTPVPAATVSSPSPTRFIGPQLPAGGANGYTNGNAQKTAIQFKQQNQQSPQNGLQLGTGKFQDTAKPPLVGAHAKGEATSAPTANGNKSSSPSSNSSSNHKSINQQQYLPISSDDEDIEDEMKPRPTTAQLPSMPNMTENHTEPKAKSPVKIQVKTPVKTPLKSLVPYESASEEEEAPLPNPRKRPSGEDSSESDQESGQTNGHSKTNGSHTNGSASSSVHVNNSKQKTDAIDEIFKSLKKSADSDEDDDEEEPSIQLTNGWHPQKQSQSQSKAPPSPKTPPSPAVIKSKTGIWKVTRNDEVDAIEDDVDVVVVEGSPVKIPTPNKNHRNPFSSSKPSTDSPATPGAKRQKLLNGSALKSHQQPRVGNGYQSNATSNGSTINELLKQSYRGYGSPVLSWNGKPAELEKELLVDAREQRQRDIDDDEENEMDRGRQRKVKSGSAKGNNASNSTPGYNPFQEYEGQKRWNKNGGGGGFPRFYNQNYRQNFQQRNKFKFNRFGGPGSAKFQQQRALQRHLSAGGGFSRRQPSAQQQQQT |  | binds |
